The target in this assay is T1, IgFLNa21 domain of filamin A (Gly2236-Ser2329) (UniProt P21333 2236-2329).
T1 construct: filamin A, Ig-like repeat 21 (IgFLNa21), residues Gly2236-Ser2329; The same range also stands as the C-terminal part of the hybrid chain m5 (cloned in pET14b); the rows on the hybrid use m1 for this domain; also called IgFLNa21 filamin; wild-type IgFLNa21; source: E. coli rosetta, synthetic gene in pET24a, 15N/13C-labelled, purified (Ni-NTA, size-exclusion chromatography)
T1 sequence (looked up): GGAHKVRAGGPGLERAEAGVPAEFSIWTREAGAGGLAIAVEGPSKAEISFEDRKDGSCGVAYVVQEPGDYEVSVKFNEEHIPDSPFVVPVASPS
Description: NMR titration; 15N-1H HSQC of IgFLNa21 (100 μM) with sequential additions of peptide at 1:0, 1:1, 1:2 and 1:3 ratios; 298 K; 25 mM sodium phosphate, 5 mM NaCl, 2 mM DTT, 10% D2O, pH 6.5; both purified.

From article PMC5882645, “NMR Structure, Dynamics and Interactions of the Integrin β2 Cytoplasmic Tail with Filamin Domain IgFLNa21” (Scientific Reports, 2018) come the findings set out here.

No constants are given. Whether binding was seen depends on the method and setting. Some results given as binding are weak or reduced against the parent protein; the word gives no strength.

B1: β2-CT MP peptide (membrane proximal fragment of integrin β2 CT, K724-D750) (peptide)
chain: KALIHLSDLREYRRFEKEKLKSQWNND
With B1, the binding result is recorded as “binds weakly”.
